Literature values, collected in patent US10143669B2, “Use of short chain fatty acids in cancer prevention” (Temple University-Of The Commonwealth System of Higher …, priority 2015, dated 2018).
For at least one compound, name, drawing or mass did not settle the structure.

Columns and labels:
[1] = tested on: chemically induced colitis; details: Smith P M et al., Science, 2013; Celasco G et al., 2014
DEN induced HCC = details: Kuroiwa-Trzmielina J et al., 2009; de Conti A et al., 2012

For CCCC(=O)O [butyrate], the “inflammation in mouse model of colitis” value [1] is listed as “helped to resolve” and the “DEN induced HCC” value (DEN induced HCC) is listed as “partially blocked”.
